Measurements from the supplement of paper PMC12819154, “High-throughput peptide-centric local stability assay extends protein–ligand identification to membrane proteins, tissues and bacteria” (Nature Structural & Molecular Biology, 2025).
Some of the results follow. Most values lie at the level of the controls, where differences are scatter.

The chains behind the UniProt entries cited, without tags or fusion partners. Where a name states a change or a piece, a line headed by the entry shows the natural chain unless it says otherwise.
UniProt Q7Z7E8: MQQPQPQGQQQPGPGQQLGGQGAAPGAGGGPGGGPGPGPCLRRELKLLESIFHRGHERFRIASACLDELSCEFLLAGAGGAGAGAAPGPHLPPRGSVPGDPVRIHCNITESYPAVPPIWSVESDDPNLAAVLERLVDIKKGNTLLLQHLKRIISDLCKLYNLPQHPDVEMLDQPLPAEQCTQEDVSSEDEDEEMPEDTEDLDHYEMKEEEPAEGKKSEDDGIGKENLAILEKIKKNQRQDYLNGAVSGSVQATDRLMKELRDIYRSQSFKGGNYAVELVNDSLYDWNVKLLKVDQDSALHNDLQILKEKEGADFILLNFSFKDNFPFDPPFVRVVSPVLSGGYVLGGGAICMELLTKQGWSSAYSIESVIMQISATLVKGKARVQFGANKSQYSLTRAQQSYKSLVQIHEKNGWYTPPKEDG
UniProt Q86U90: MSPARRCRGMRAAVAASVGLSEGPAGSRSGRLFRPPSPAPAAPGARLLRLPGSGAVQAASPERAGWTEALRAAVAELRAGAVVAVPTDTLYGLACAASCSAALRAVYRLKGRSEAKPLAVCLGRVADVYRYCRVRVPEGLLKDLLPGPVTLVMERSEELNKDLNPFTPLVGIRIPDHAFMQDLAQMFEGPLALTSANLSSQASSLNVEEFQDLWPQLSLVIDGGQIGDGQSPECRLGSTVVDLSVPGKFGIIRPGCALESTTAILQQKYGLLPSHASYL
UniProt Q6ZSZ5: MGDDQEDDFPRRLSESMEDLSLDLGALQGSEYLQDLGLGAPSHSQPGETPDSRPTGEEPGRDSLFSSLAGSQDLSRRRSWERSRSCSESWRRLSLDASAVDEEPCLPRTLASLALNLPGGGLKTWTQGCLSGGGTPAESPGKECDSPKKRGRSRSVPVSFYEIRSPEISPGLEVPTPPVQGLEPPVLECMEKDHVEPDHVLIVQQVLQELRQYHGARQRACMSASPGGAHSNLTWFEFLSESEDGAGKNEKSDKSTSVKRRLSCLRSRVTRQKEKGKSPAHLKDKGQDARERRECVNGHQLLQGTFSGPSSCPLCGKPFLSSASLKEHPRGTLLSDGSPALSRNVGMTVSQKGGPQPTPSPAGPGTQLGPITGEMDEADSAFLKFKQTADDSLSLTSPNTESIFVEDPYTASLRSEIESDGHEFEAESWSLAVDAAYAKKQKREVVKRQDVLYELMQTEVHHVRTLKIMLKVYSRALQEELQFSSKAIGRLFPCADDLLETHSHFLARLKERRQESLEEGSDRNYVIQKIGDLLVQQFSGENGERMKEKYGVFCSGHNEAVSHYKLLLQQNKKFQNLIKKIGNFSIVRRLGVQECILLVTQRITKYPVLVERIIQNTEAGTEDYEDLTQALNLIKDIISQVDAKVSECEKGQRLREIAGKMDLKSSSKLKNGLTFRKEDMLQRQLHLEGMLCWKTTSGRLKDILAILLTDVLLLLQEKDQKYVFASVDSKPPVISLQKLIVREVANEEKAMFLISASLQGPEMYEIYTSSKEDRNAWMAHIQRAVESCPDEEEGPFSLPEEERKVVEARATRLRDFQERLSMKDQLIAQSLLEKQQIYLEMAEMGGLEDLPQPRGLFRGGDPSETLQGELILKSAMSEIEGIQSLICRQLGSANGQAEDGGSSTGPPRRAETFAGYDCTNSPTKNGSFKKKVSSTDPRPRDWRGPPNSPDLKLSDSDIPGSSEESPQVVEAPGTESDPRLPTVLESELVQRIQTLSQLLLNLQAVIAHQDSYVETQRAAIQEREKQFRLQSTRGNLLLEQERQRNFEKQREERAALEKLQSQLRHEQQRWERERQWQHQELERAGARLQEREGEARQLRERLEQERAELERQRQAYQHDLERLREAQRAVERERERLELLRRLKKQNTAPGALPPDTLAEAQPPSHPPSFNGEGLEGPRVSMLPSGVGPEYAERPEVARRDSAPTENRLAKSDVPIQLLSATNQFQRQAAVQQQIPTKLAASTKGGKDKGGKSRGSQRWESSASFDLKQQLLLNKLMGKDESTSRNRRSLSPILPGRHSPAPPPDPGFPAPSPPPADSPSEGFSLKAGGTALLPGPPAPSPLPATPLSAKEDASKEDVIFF
UniProt Q7RTS9: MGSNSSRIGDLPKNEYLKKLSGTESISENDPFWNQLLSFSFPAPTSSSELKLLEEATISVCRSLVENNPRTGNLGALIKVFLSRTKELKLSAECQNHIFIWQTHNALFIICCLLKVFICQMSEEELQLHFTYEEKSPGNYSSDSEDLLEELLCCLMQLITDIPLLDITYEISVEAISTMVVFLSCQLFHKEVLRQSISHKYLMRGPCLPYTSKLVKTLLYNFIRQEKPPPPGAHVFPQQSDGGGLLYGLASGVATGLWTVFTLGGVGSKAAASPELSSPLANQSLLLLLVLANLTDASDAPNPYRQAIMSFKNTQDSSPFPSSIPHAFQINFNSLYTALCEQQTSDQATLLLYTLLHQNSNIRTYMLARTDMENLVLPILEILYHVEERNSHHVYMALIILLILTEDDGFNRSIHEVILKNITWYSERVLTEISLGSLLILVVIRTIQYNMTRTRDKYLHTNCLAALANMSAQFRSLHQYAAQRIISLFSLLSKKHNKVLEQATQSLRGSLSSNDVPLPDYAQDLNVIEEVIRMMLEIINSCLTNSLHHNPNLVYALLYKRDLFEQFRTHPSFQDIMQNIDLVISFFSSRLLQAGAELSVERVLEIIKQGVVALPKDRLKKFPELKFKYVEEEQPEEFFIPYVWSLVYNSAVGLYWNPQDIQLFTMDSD
UniProt Q86UT8: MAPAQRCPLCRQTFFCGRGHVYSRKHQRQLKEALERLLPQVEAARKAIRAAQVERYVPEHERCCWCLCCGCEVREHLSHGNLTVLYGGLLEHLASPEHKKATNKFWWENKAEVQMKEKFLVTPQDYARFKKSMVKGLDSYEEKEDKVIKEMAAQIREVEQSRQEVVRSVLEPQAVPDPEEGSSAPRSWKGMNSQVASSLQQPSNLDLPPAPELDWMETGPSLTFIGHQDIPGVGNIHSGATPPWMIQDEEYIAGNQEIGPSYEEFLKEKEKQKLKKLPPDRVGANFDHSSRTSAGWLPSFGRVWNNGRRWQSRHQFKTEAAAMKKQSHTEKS
UniProt Q86U06: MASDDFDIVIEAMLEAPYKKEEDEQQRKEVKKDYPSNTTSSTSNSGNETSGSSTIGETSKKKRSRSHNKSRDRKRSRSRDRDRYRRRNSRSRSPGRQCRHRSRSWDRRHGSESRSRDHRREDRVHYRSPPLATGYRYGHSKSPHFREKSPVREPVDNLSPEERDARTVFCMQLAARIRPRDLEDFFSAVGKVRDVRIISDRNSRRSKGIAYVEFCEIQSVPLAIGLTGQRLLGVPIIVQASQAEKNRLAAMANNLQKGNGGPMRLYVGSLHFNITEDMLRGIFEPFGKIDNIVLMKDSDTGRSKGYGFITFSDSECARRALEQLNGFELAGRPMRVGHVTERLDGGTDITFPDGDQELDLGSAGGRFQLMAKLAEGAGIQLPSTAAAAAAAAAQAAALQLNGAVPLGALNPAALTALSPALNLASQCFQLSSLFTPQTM
UniProt Q7Z2K6: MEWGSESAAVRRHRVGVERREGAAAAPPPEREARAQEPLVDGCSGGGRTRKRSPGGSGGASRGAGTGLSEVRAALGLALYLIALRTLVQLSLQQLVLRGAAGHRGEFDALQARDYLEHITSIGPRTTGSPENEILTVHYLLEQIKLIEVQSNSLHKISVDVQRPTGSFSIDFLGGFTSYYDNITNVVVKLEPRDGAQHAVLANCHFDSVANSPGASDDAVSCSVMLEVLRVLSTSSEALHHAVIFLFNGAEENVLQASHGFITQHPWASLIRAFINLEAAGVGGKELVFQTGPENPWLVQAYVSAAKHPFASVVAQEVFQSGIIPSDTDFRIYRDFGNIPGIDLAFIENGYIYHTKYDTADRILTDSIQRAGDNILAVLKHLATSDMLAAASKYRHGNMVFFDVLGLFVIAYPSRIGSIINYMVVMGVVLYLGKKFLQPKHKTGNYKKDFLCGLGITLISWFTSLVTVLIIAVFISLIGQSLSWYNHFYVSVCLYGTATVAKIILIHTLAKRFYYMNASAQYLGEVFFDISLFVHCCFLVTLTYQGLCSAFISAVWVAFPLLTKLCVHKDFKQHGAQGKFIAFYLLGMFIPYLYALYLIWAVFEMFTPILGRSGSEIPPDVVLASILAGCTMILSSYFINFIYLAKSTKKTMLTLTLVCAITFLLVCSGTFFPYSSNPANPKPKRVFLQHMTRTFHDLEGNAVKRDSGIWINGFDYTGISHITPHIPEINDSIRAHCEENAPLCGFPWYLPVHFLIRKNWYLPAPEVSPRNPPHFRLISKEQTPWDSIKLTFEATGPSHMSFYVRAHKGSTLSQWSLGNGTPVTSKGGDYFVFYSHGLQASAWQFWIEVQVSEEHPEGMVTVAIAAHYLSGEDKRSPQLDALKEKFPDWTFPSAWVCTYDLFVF

These targets were tested with CN[C@@H]1C[C@H]2O[C@@](C)([C@@H]1OC)n1c3ccccc3c3c4c(c5c6ccccc6n2c5c31)C(=O)NC4 [staurosporine] (assay: log2 fold change of tryptic peptide abundance, ligand vs vehicle (limited proteolysis) (log2 ratio); higher = more trypsin-susceptible (destabilized)). Details: ligand concentration: 20 uM; sample: K562 cleared lysate; digestion: 4 min, 22 C (HT-PELSA RT4min, Orbitrap Astral).
“UBE2Q1 (peptide sequence: GSVPGDPVR, peptide start residue: 95) (UniProt Q7Z7E8)” showed a log2 fold change of 0.156. With “YRDC (peptide sequence: SEAKPLAVCLGR, peptide start residue: 113) (UniProt Q86U90)” the log2 fold change was 0.14. “UniProt Q86UY6 (peptide sequence: LGDPLEAFPVFK, peptide start residue: 35)” gave a log2 fold change of 0.506. Target “UniProt Q6ZSZ5 (peptide sequence: EDASKEDVIFF, peptide start residue: 1351)” has a log2 fold change of -0.274. With “DYM (peptide sequence: SLVENNPR, peptide start residue: 63) (UniProt Q7RTS9)” the log2 fold change was 0.55. With “UniProt Q86UT8 (peptide sequence: TSAGWLPSFGR, peptide start residue: 292)” the log2 fold change was -0.263. “RBM23 (peptide sequence: SPPLATGYR, peptide start residue: 128) (UniProt Q86U06)” was tested, and the log2 fold change was 0.186. For “ERMP1 (peptide sequence: EGAAAAPPPER, peptide start residue: 21) (UniProt Q7Z2K6)”, the log2 fold change was -0.514.
